The list shows a part of the results.
B1: il2ra_site1_3nfp_sap_9_mot_HHH_b1_04931_000000291_0001_38_56_H_._HHH_b2_07412_0001_0000500030_0000001_0_0001_af2pred_0001_af2pred_1 (protein)
chain: SSSSSSEEEEERVRELLERAKKIEDLREAEELFEEAVKIARELKDPELLRLVLEFAHEVSSSSSS
B2: il2ra_site2_2erj_normal_mot_HHH_b2_06726_000000006_0001_1_16_H_._HHH_b1_02692_0001_0000800011_0000001_0 (protein)
chain: SSSSDLEEEIRELLERIEKLLEEGNREEAISLILEASRLIIELGDEELERELSKLFVRLYSSSSS
B3: il2ra_site1_3nfp_sap_12_mot_119b7766384adbe86006a62bce89dba1_0001_af2_000000052_0001_18_32_H_._HHH_b2_01389_0001_0000200012_0000001_0_0001_af2pred_0001_af2pred_ … (protein)
chain: SEELLKELAERLGDPLVREVVELLEEALEKGDPEASREFDELLKRLLKEGIIPPEVVFEVLKELA
B4: il2ra_site1_1z92_sap_8_mot_HHH_b2_08173_af2_000000034_0001_21_37_H_._b26a303360aa2756ef5b79665ce52f45_0001_0001_0000100012_0000001_0_0001_af2pred_0001_af2pred_1 … (protein)
chain: PEALERDFERSREQGIPPRSVARALLRALRALGHPPEEVEELVRQVLERLLGDPEEAREVLEEAK
B5: il2ra_site1_1z92_sap_25_mot_HHH_b1_01245_000000029_0001_23_39_H_._HHH_b1_01234_af2_0001_0000400036_0000001_0_0001 (protein)
chain: SSSSSELREELEELIKKLEKMGSEFAVEQLRAKLERYERTGDEHFVRSALRIAERLHRAANSSSS
B6: il2ra_site1_2b5i_normal_mot_22370d59370c406a0c205a431f537cfa_0001_af2_000000027_0001_1_31_H_._HHH_b1_00762_af2_0001_0000100004_0000001_0 (protein)
chain: SSSSDNEEVRRATEIVWRLASRYHLSAEQIQELVRLLEKLLEKGVSLEEVEEELEKLAEELSSSS
B7: il2ra_site2_2erj_normal_mot_HHH_b2_02303_000000050_0001_43_56_H_._HHH_b1_01620_af2_0001_0000100001_0000001_0 (protein)
chain: SSSSSEEEEEVAELAAEAAEIKDPEEAREVLEEALRIAEEINNELLRRYVELALRSVRRASSSSS
B8: il2ra_site2_3nfp_sap_17_mot_HHH_b2_08245_000000023_0001_41_55_H_._HHH_b1_01870_0001_0000400055_0000001_0_0001 (protein)
chain: SSSDEELAEEFIEWAEEAARLWGDEEVVRAIEELLERFRKEGDPKYAAEVSELLAEIIERGSSSS
B9: il2ra_site1_2b5i_normal_mot_HHH_b2_04910_000000118_0001_1_19_H_._HHH_b2_05595_af2_0001_0000100006_0000001_0_af2pred_dldesign_0_af2pred (protein)
chain: SSSSSAVKKALELFLEADRLKQEGKEEEAKELLEEAKRLAEEGKANLLVRIIESALEQLESSSSS
B10: il2ra_site1_3nfp_sap_18_mot_HHH_b1_02570_af2_000000297_0001_1_19_H_._HHH_b1_00894_0001_0000200014_0000001_0_0001_af2pred_0001_af2pred (protein)
chain: SDLEEEVRELIERIKEFAEKYNSPAAKLLAERLEEKARRAEENNDEELLRKVLEQAQESLEAGSS
B11: il2ra_site1_3nfp_normal_mot_HHH_b2_08102_af2_000000255_0001_38_50_H_._HHH_b1_04523_0001_0000100003_0000001_0_af2pred_0001_af2pred_swapped (protein)
chain: SSSSSEAKEFQELVKELRKLIKEGDEEEARELLERLREIVERRNSRIAKELLEILEKLVESSSSS
B12: il2ra_site1_2b5i_normal_mot_HHH_b1_02271_000000068_0001_1_16_H_._HHH_b2_07355_af2_0001_0000100001_0000001_0_af2pred_0001_af2pred (protein)
chain: SSSSSSRLELVEELDRLFKLLAEEGDEETLEEVLELFREASRKKDPRLLEEAIELAKRVLSSSSS
B13: il2ra_site2_3nfp_sap_13_mot_HHH_b1_08005_000000161_0001_1_17_H_._c09b00986db088d0fdb98887e7bccc3e_0001_af2_0001_0000100007_0000001_0_0001 (protein)
chain: SSSSSDVEELLEEVKELIEEGDLYQAAQVLVEASELAAERQDPELARIVLELFLELQKEGSSSSS
B14: il2ra_site2_2erj_sap_16_mot_HHH_b1_04407_af2_000000039_0001_42_56_H_._HHH_eva_0415_0001_0000100006_0000001_0_0001 (protein)
chain: SSSSDSLLHELYRLANELMRLITEGDEEEAKEILEEAEEVAERLNSENAKEFLKRLKKQLSSSSS
B15: il2ra_site2_2erj_sap_18_mot_HHH_b1_07806_000000211_0001_42_56_H_._HHH_b2_00355_0001_0000100005_0000001_0_0001_af2pred_0001_af2pred (protein)
chain: SSSSSDREEAEERIEELLEEAKHVPDQKEAMKLLQEAAELADEVNDPELVELVDEVLRRLSSSSS
B16: il2ra_site1_2b5i_normal_mot_f5ff40796168375b462bec8614a1db4a_0001_1_000000138_0001_53_65_H_._HHH_b2_02099_0001_0000400009_0000001_0_af2pred_dldesign_0_af2pred (protein)
chain: SSSSSNEDYEELVKELLEKAEKIEDPEERRRVLLLARRVAKKGKNPELVAEVEARLAALESSSSS
B17: il2ra_site1_1z92_normal_mot_HHH_b1_03515_000000289_0001_1_19_H_._HHH_b1_03515_af2_0001_0000200033_0000001_0_af2pred_0001_af2pred_1_swapped (protein)
chain: SSSNEERLRRNAEIIVKIAVEIAQLSEEQEELLRELAEELLERGVSWEEIAKRLDELAAQLGSSS
B18: il2ra_site2_3nfp_sap_20_mot_HHH_b1_03376_000000004_0001_41_55_H_._HHH_b1_03616_0001_0001400121_0000001_0_0001 (protein)
chain: SSSSDEELEEALRELEEAVEEGDKDAVARLLELVLRLAAELNDEEAAEIVIEIYAQMKKRRSSSS
B19: il2ra_site2_2erj_sap_26_mot_678ce523d3521e26f84bf18760a59296_0001_000000113_0001_1_12_H_._f3ed0478f97ec8155d1bdca7070205eb_0001_0001_0000100004_0000001_0_0001 (protein)
chain: SSSDREEVEELIEEVEELIRQGDYRRASELLAEAMELALRAQDAELLLRLYELLREIFERNSSSS

Molecular target: il2ra, P01589
Experiment: yeast display titration

Apparent Kd, inactive:
B1 no binding seen
B2 no binding seen
B3 no binding seen
B4 no binding seen
B5 no binding seen
B6 no binding seen
B7 no binding seen
B8 no binding seen
B9 no binding seen
B10 no binding seen
B11 no binding seen
B12 no binding seen
B13 no binding seen
B14 no binding seen
B15 no binding seen
B16 no binding seen
B17 no binding seen
B18 no binding seen
B19 no binding seen

Pulled one by one from above:
Apparent Kd, inactive:
B13 no binding seen
B19 no binding seen
